The source of these data is article PMC9423946.

By UniProt entry, the sequences of proteins in these tests, tags left out.
UniProt P35222: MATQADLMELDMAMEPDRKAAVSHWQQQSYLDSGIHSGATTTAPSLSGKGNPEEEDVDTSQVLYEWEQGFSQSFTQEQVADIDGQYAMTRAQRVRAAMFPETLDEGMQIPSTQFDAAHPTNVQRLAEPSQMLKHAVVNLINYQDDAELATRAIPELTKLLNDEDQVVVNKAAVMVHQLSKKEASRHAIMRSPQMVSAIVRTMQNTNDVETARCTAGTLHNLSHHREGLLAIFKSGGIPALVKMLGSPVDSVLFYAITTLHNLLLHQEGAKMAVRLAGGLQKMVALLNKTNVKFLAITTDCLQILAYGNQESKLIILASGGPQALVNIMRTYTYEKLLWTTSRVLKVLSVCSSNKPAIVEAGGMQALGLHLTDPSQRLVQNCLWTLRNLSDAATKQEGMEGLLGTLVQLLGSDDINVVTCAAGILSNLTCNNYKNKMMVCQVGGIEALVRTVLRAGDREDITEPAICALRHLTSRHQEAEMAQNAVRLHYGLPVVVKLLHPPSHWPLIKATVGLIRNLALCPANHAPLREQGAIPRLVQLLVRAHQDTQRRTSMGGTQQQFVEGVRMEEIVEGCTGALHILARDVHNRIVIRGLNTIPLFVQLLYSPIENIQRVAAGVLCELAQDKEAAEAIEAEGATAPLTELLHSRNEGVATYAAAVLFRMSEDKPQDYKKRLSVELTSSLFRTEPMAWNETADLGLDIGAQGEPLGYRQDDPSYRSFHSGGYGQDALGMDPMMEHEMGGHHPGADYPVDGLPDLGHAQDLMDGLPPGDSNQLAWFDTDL
UniProt Q86XT4: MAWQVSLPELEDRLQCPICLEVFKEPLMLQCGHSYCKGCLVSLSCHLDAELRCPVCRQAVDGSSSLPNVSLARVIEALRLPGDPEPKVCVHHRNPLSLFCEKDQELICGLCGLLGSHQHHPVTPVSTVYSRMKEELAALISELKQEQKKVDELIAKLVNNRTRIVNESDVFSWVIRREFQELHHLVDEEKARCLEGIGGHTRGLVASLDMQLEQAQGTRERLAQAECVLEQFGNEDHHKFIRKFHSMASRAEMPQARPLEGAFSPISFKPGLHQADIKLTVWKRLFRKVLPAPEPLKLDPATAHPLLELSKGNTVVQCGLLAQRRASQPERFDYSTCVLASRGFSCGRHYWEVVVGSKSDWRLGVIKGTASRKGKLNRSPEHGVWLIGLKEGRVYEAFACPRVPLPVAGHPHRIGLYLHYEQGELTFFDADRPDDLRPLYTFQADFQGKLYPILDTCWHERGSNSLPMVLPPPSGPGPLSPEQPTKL

These are yes or no findings as the source states them, for the method shown. In cells and extracts the contact can be indirect. Some binding calls cover weakened binding; strength is not graded here.

This test addresses β-catenin (human (endogenous in AGS or SGC-7901)) (UniProt P35222). The test is described as follows: co-IP; total protein of AGS or SGC-7901 cells in RIPA buffer mixed with anti-TRIM50, anti-β-catenin or normal IgG; protein A/G agarose beads; washed 4 times; Western blot.

On to “Tripartite motif-containing 50 (TRIM50) (from UniProt Q86XT4 1-487)”, for which the binding entry is reported as “binds”.
